# Experimental data: the supplement of paper PMC8728848
# The other results are listed elsewhere or left out.
# Columns and labels:
# Experiment in all cases: glycan array binding signal (z-score within array); higher = stronger binding
# Conditions in all cases: glycan notation: IUPAC condensed, linker removed
# [1] = biological target: Gal(b1-4)GlcNAc(b1-3)Gal(b1-3)GlcNAc
# How it was run: (§1)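 The binding signal is a Z-score computed within each array. Data were drawn from 3228 arrays in the Consortium for Functional Glycomics database, restricted to those with a known protein sequence. Scores were averaged over arrays of the same protein sequence at different concentrations or buffers, and over linkers, and negative values can be taken as non-binding.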
# [2] = biological target: Gal(b1-4)GlcNAc(b1-3)Gal(b1-4)Glc
# How it was run: as §1
# [3] = biological target: Gal(b1-4)GlcNAc(b1-3)Gal(b1-4)GlcNAc
# How it was run: as §1
# [4] = biological target: Gal(b1-4)GlcNAc(b1-3)Gal(b1-4)GlcNAc(b1-2)Man(a1-3)[Gal(b1-4)GlcNAc(b1-3)Gal(b1-4)GlcNAc(b1-2)Man(a1-6)]Man(b1-4)GlcNAc(b1-4)GlcNAc
# How it was run: as §1
# [5] = biological target: Gal(b1-4)GlcNAc(b1-3)Gal(b1-4)GlcNAc(b1-2)Man(a1-3)[Gal(b1-4)GlcNAc(b1-3)Gal(b1-4)GlcNAc(b1-2)Man(a1-6)]Man(b1-4)GlcNAc(b1-4)[Fuc(a1-6)]GlcNAc
# How it was run: as §1
# [6] = biological target: Gal(b1-4)GlcNAc(b1-3)Gal(b1-4)GlcNAc(b1-2)[Gal(b1-4)GlcNAc(b1-3)Gal(b1-4)GlcNAc(b1-6)]Man(a1-6)[Gal(b1-4)GlcNAc(b1-3)Gal(b1-4)GlcNAc(b1-2)Man(a1-3)]Man(b1-4)GlcNAc(b1-4)GlcNAc
# How it was run: as §1
# [7] = biological target: Gal(b1-4)GlcNAc(b1-3)Gal(b1-4)GlcNAc(b1-2)[Gal(b1-4)GlcNAc(b1-3)Gal(b1-4)GlcNAc(b1-6)]Man(a1-6)[Gal(b1-4)GlcNAc(b1-3)Gal(b1-4)GlcNAc(b1-2)Man(a1-3)]Man(b1-4)GlcNAc(b1-4)[Fuc(a1-6)]GlcNAc
# How it was run: as §1
# [8] = biological target: Gal(b1-4)GlcNAc(b1-3)Gal(b1-4)GlcNAc(b1-3)Gal(b1-4)GlcNAc
# How it was run: as §1
# [9] = biological target: Gal(b1-4)GlcNAc(b1-3)Gal(b1-4)GlcNAc(b1-3)Gal(b1-4)GlcNAc(b1-2)Man(a1-3)[Gal(b1-4)GlcNAc(b1-3)Gal(b1-4)GlcNAc(b1-3)Gal(b1-4)GlcNAc(b1-2)Man(a1-6)]Man(b1-4)GlcNAc(b1-4)GlcNAc
# How it was run: as §1
# [10] = biological target: Gal(b1-4)GlcNAc(b1-3)Gal(b1-4)GlcNAc(b1-3)Gal(b1-4)GlcNAc(b1-2)Man(a1-3)[Gal(b1-4)GlcNAc(b1-3)Gal(b1-4)GlcNAc(b1-3)Gal(b1-4)GlcNAc(b1-2)Man(a1-6)]Man(b1-4)GlcNAc(b1-4)[Fuc(a1-6)]GlcNAc
# How it was run: as §1
# [11] = biological target: Gal(b1-4)GlcNAc(b1-3)Gal(b1-4)GlcNAc(b1-3)Gal(b1-4)GlcNAc(b1-2)[Gal(b1-4)GlcNAc(b1-3)Gal(b1-4)GlcNAc(b1-3)Gal(b1-4)GlcNAc(b1-6)]Man(a1-6)[Gal(b1-4)GlcNAc(b1-3)Gal(b1-4)GlcNAc(b1-3)Gal(b1-4)GlcNAc(b1-2)Man(a1-3)]Man(b1-4)GlcNAc(b1-4)[Fuc(a1-6)]GlcNAc
# How it was run: as §1
# [12] = biological target: Gal(b1-4)GlcNAc(b1-3)Gal(b1-4)GlcNAc(b1-3)Gal(b1-4)GlcNAc(b1-3)Gal(b1-4)GlcNAc(b1-2)Man(a1-3)[Gal(b1-4)GlcNAc(b1-3)Gal(b1-4)GlcNAc(b1-3)Gal(b1-4)GlcNAc(b1-3)Gal(b1-4)GlcNAc(b1-2)Man(a1-6)]Man(b1-4)GlcNAc(b1-4)GlcNAc
# How it was run: as §1
# [13] = biological target: Gal(b1-4)GlcNAc(b1-3)Gal(b1-4)GlcNAc(b1-3)Gal(b1-4)GlcNAc(b1-3)Gal(b1-4)GlcNAc(b1-2)Man(a1-3)[Gal(b1-4)GlcNAc(b1-3)Gal(b1-4)GlcNAc(b1-3)Gal(b1-4)GlcNAc(b1-3)Gal(b1-4)GlcNAc(b1-2)Man(a1-6)]Man(b1-4)GlcNAc(b1-4)[Fuc(a1-6)]GlcNAc
# How it was run: as §1
# [14] = biological target: Gal(b1-4)GlcNAc(b1-3)Gal(b1-4)GlcNAc(b1-3)Gal(b1-4)GlcNAc(b1-3)Gal(b1-4)GlcNAc(b1-2)[Gal(b1-4)GlcNAc(b1-3)Gal(b1-4)GlcNAc(b1-3)Gal(b1-4)GlcNAc(b1-3)Gal(b1-4)GlcNAc(b1-6)]Man(a1-6)[Gal(b1-4)GlcNAc(b1-3)Gal(b1-4)GlcNAc(b1-3)Gal(b1-4)GlcNAc(b1-3)Gal(b1-4)GlcNAc(b1-2)Man(a1-3)]Man(b1-4)GlcNAc(b1-4)[Fuc(a1-6)]GlcNAc
# How it was run: as §1
# [15] = biological target: Gal(b1-4)GlcNAc(b1-3)Gal(b1-4)GlcNAc(b1-3)Gal(b1-4)GlcNAc(b1-3)Gal(b1-4)GlcNAc(b1-3)Gal(b1-4)GlcNAc(b1-2)Man(a1-3)[Gal(b1-4)GlcNAc(b1-3)Gal(b1-4)GlcNAc(b1-3)Gal(b1-4)GlcNAc(b1-3)Gal(b1-4)GlcNAc(b1-3)Gal(b1-4)GlcNAc(b1-2)Man(a1-6)]Man(b1-4)GlcNAc(b1-4)GlcNAc
# How it was run: as §1
# [16] = biological target: Gal(b1-4)GlcNAc(b1-3)Gal(b1-4)GlcNAc(b1-3)Gal(b1-4)GlcNAc(b1-3)Gal(b1-4)GlcNAc(b1-3)Gal(b1-4)GlcNAc(b1-2)Man(a1-3)[Gal(b1-4)GlcNAc(b1-3)Gal(b1-4)GlcNAc(b1-3)Gal(b1-4)GlcNAc(b1-3)Gal(b1-4)GlcNAc(b1-3)Gal(b1-4)GlcNAc(b1-2)Man(a1-6)]Man(b1-4)GlcNAc(b1-4)[Fuc(a1-6)]GlcNAc
# How it was run: as §1
# [17] = biological target: Gal(b1-4)GlcNAc(b1-3)Gal(b1-4)GlcNAc(b1-3)Gal(b1-4)GlcNAc(b1-3)Gal(b1-4)GlcNAc(b1-3)Gal(b1-4)GlcNAc(b1-2)[Gal(b1-4)GlcNAc(b1-3)Gal(b1-4)GlcNAc(b1-3)Gal(b1-4)GlcNAc(b1-3)Gal(b1-4)GlcNAc(b1-3)Gal(b1-4)GlcNAc(b1-6)]Man(a1-6)[Gal(b1-4)GlcNAc(b1-3)Gal(b1-4)GlcNAc(b1-3)Gal(b1-4)GlcNAc(b1-3)Gal(b1-4)GlcNAc(b1-3)Gal(b1-4)GlcNAc(b1-2)Man(a1-3)]Man(b1-4)GlcNAc(b1-4)[Fuc(a1-6)]GlcNAc
# How it was run: as §1
# [18] = biological target: Gal(b1-4)GlcNAc(b1-3)Gal(b1-4)GlcNAc(b1-3)Gal(b1-4)GlcNAc(b1-3)Gal(b1-4)GlcNAc(b1-3)Gal(b1-4)GlcNAc(b1-3)Gal(b1-4)GlcNAc(b1-2)Man(a1-3)[Gal(b1-4)GlcNAc(b1-3)Gal(b1-4)GlcNAc(b1-3)Gal(b1-4)GlcNAc(b1-3)Gal(b1-4)GlcNAc(b1-3)Gal(b1-4)GlcNAc(b1-3)Gal(b1-4)GlcNAc(b1-2)Man(a1-6)]Man(b1-4)GlcNAc(b1-4)GlcNAc
# How it was run: as §1
# [19] = biological target: Gal(b1-4)GlcNAc(b1-3)Gal(b1-4)GlcNAc(b1-3)GalNAc
# How it was run: as §1
binder,measurement,setting,value
Epa21 (Candida glabrata) (protein) MGSSHHHHHHSSGLVPRGSHMASTPNIESHPQGCSPVDTSGIKPGLKMDLYRFPITPPGTGCWSWDWLTVTPDFPRSGYWKWPKIAEVDGVVGPLHLDSGHPTCDPLTSVLPHGFNYLQSITTTNFTMVLHGYFVPKQSGKYTFEFKADDALLLNLGAGNAFSCCDYNNSQYNQGEYLAYAIWSKNNQTATLYLEKGIYYPIRVFYHNRCCGAYMDVVYYFNDSPIPNRDFSGLLFSIPDSDSCDANI,glycan array binding signal (z-score),[1],-0.579
same,glycan array binding signal (z-score),[2],-0.051
same,glycan array binding signal (z-score),[3],-0.605
same,glycan array binding signal (z-score),[4],1.77
same,glycan array binding signal (z-score),[5],0.079
same,glycan array binding signal (z-score),[6],2.18
same,glycan array binding signal (z-score),[7],0.542
same,glycan array binding signal (z-score),[8],-0.401
same,glycan array binding signal (z-score),[9],2.55
same,glycan array binding signal (z-score),[10],0.547
same,glycan array binding signal (z-score),[11],1.26
same,glycan array binding signal (z-score),[12],0.742
same,glycan array binding signal (z-score),[13],1.27
same,glycan array binding signal (z-score),[14],1.12
same,glycan array binding signal (z-score),[15],0.995
same,glycan array binding signal (z-score),[16],1.16
same,glycan array binding signal (z-score),[17],1.77
same,glycan array binding signal (z-score),[18],-0.201
same,glycan array binding signal (z-score),[19],0.441

# Shown with bars between the fields: entries from further up.
binder | measurement | setting | value
Epa21 (Candida glabrata) (protein) MGSSHHHHHHSSGLVPRGSHMASTPNIESHPQGCSPVDTSGIKPGLKMDLYRFPITPPGTGCWSWDWLTVTPDFPRSGYWKWPKIAEVDGVVGPLHLDSGHPTCDPLTSVLPHGFNYLQSITTTNFTMVLHGYFVPKQSGKYTFEFKADDALLLNLGAGNAFSCCDYNNSQYNQGEYLAYAIWSKNNQTATLYLEKGIYYPIRVFYHNRCCGAYMDVVYYFNDSPIPNRDFSGLLFSIPDSDSCDANI | glycan array binding signal (z-score) | [9] | 2.55
same | glycan array binding signal (z-score) | [10] | 0.547
